Measurements reported in patent US8551517B2, “Substrates providing multiple releases of active agents” (Kimberly-Clark Worldwide, Inc., priority 2008, dated 2013).
Counter-ions that a name gives are not always drawn. At least one compound was matched to its structure with a doubt left.

Assay: Release of surrogate active agents from the three-layer substrate into phosphate-buffered saline, measured by fluorescence spectrophotometry
Type: physicochemical
Settings: substrate ball (first polymer matrix / coacervate / second polymer matrix) in 5 ml 1× phosphate-buffered saline at room temperature; average of three samples; FIG. 4

O=C1OC2(c3ccc(O)cc3Oc3cc(O)ccc32)c2ccccc21 [fluorescein, fluorescein sodium salt]
time to reach 100% concentration level (maximum level of fluorescence release): ≤ 15 min
